Measured values published in publication PMC3946557.
Results are given in words; binding and its absence hold for the method and conditions named. In cells and extracts the contact can be indirect. Some entries that bind do so weakly or less than the wild type. Sequences can lack the tags named with a protein.

Protein sequences, listed by entry. Tags and fused reporters are not part of them. Residues count along the entry.
UniProt P02649, residues 19-317: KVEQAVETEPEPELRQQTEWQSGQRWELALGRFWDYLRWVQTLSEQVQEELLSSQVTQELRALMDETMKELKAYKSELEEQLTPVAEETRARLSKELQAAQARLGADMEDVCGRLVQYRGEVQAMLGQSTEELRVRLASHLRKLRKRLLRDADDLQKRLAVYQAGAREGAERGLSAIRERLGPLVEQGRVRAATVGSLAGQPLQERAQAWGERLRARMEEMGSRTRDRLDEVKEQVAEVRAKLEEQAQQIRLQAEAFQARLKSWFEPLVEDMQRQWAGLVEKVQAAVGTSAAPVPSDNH

Target: T1, FLAG-tagged GP73 (GP73-FL) (UniProt Q8NBJ4)
T1 sequence: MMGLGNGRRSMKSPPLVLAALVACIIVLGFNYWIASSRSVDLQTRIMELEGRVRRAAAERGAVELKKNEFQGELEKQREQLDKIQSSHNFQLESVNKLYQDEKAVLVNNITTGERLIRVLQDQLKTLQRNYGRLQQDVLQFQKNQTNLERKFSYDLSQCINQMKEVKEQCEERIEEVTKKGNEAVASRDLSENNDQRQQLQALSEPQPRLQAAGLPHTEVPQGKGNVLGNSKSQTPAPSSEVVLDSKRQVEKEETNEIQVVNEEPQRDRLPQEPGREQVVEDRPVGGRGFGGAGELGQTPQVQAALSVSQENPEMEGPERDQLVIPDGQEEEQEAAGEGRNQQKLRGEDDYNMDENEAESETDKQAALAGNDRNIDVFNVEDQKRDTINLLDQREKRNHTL
Test: co-IP; 293T cells cotransfected with FLAG-tagged GP73 (or truncations) and HA-tagged APOE; lysis 30 h after transfection in 50 mM Tris-HCl pH 7.4, 150 mM NaCl, 5 mM EDTA, 0.5% NP40; immunoprecipitation with anti-Flag or anti-HA (normal mouse IgG as control) overnight at 4 °C, protein A/G beads, immunoblot

- binding: binds
Substance: HA-tagged APOE (from UniProt P02649 19-317)
